Experimental data published in article PMC8519022 (Angewandte Chemie (International Ed. in English), 2021).
For some of these results: Some peptides are written in HELM: one residue between dots, names in brackets for other building blocks, links after the first $. *1 amine or outer side, *2 acyl side, *3 side chain or, on linkers, in order; H or OH if unused. Where a SMILES comes first, the peptide text is derived from it. Bridges are numbered along the chain shown (N, C = ends). Triazole bridges read from a SMILES are 1,4-linked. [ ]: non-standard residue; d: D form. X1 = Cc1sc(C(=O)[C@@H]2CCCN2[*:2])cc1C1=C(c2cc(C(=O)[*:1])sc2C)CCC1; Aha = [N-]=[N+]=NCC[C@H](N)C(=O)O; Pra = C#CC[C@H](N)C(=O)O

Assays:
[1] = Hydrogen/deuterium exchange by MALDI-TOF-MS (slow-exchanging protons); type: physicochemical; settings: unexchanged backbone amide protons at 40 s (t1/2>40 s), 10 mM sodium citrate in D2O, pD 4.5, 22°C; for Number of slow-exchanging protons: non-photoswitchable reference; for Number of slow-exchanging protons (closed): ring-closed photoform; for Number of slow-exchanging protons (open): ring-open photoform
[2] = general procedure: Fmoc solid-phase peptide synthesis; HBTU, HATU, PyBOP

CC[C@H](C)[C@@H]1NC(=O)[C@@H]2CCCN2C(=O)[C@@H]2CCCN2C(=O)[C@H]([C@@H](C)CC)NC(=O)[C@H](CO)NC(=O)[C@H](CCCCN)NC(=O)[C@H]([C@@H](C)O)NC(=O)[C@@H]2CSSC[C@H](NC1=O)C(=O)N[C@@H](CCCNC(=N)N)C(=O)N1CCC[C@H]1C(=O)N[C@@H](CC(=O)O)C(=O)NCC(=O)N[C@@H](Cc1ccccc1)C(=O)N2 [SFTI‐1i, reference compound] (cyclo(CRPDGFCTKSIPPI); disulfide 1-7)
Number of slow-exchanging protons ([1]; n = 3): 6.8 ± 0.2

CC[C@H](C)[C@@H]1NC(=O)[C@@H]2CCCN2C(=O)[C@@H]2CCCN2C(=O)[C@H]([C@@H](C)CC)NC(=O)[C@H](CO)NC(=O)[C@H](CCCCN)NC(=O)[C@H]([C@@H](C)O)NC(=O)[C@@H]2Cc3cn(nn3)CC[C@H](NC1=O)C(=O)N[C@@H](Cc1ccccc1)C(=O)N1CCC[C@H]1C(=O)c1cc(c(C)s1)C1=C(CCC1)c1cc(sc1C)C(=O)N[C@@H](CCCNC(=N)N)C(=O)N2 [Peptide S6n] (R[Pra]TKSIPPI[Aha]F; triazole 2-10; linker N-C via X1)
Number of slow-exchanging protons (closed) ([1]; n = 3): 2.5 ± 0.1
Number of slow-exchanging protons (open) ([1]; n = 3): 3.4 ± 0.1

PEPTIDE1{[DAE].A.T.K.S.I.P.P.I.A}$PEPTIDE1,PEPTIDE1,1:R1-10:R2$$$V2.0
difficulty met ([2]; cyclisation step): it was obtained with a very low yield at the cyclization step

CC[C@H](C)[C@@H]1NC(=O)[C@@H]2CCCN2C(=O)[C@@H]2CCCN2C(=O)[C@H]([C@@H](C)CC)NC(=O)[C@H](CO)NC(=O)[C@H](CCCCN)NC(=O)[C@H]([C@@H](C)O)NC(=O)[C@@H]2Cc3cn(nn3)CC[C@H](NC1=O)C(=O)N[C@@H](CCCNC(=N)N)C(=O)N[C@@H](CC(C)C)C(=O)N1CCC[C@H]1C(=O)c1cc(c(C)s1)C1=C(CCC1)c1cc(sc1C)C(=O)N[C@@H](C(C)C)C(=O)N[C@@H](Cc1ccccc1)C(=O)N2 [Peptide S11i] (VF[Pra]TKSIPPI[Aha]RL; triazole 3-11; linker N-C via X1)
Number of slow-exchanging protons (closed) ([1]; n = 3): 3.5 ± 0.1
Number of slow-exchanging protons (open) ([1]; n = 3): 3.7 ± 0.2

CC[C@H](C)[C@@H]1NC(=O)[C@@H]2CCCN2C(=O)[C@@H]2CCCN2C(=O)[C@H]([C@@H](C)CC)NC(=O)[C@H](CO)NC(=O)[C@H](CCCCN)NC(=O)[C@H]([C@@H](C)O)NC(=O)[C@@H]2CSSC[C@H](NC1=O)C(=O)N[C@@H](Cc1ccccc1)C(=O)N1CCC[C@H]1C(=O)N[C@@H](CC(=O)O)C(=O)NCC(=O)N[C@@H](CCCNC(=N)N)C(=O)N2 [SFTI‐1, sunflower trypsin inhibitor‐1, reference compound]
Number of slow-exchanging protons ([1]; n = 3): 6.8 ± 0.4

PEPTIDE1{G.R.C.T.K.S.I.P.P.I.C.F.P.D}$PEPTIDE1,PEPTIDE1,14:R2-1:R1|PEPTIDE1,PEPTIDE1,3:R3-11:R3$$$V2.0
crude HPLC purity ([2]; whole synthesis, analytical HPLC, scale of the general procedure 0.1 mmol): 35%

CC[C@H](C)[C@@H]1NC(=O)[C@@H]2CCCN2C(=O)[C@@H]2CCCN2C(=O)[C@H]([C@@H](C)CC)NC(=O)[C@H](CO)NC(=O)[C@H](CCCCN)NC(=O)[C@H]([C@@H](C)O)NC(=O)[C@@H]2Cc3cn(nn3)CC[C@H](NC1=O)C(=O)N[C@@H](CCCNC(=N)N)C(=O)N1CCC[C@H]1C(=O)c1cc(c(C)s1)C1=C(CCC1)c1cc(sc1C)C(=O)N[C@@H](Cc1ccccc1)C(=O)N2 [Peptide S6i] (F[Pra]TKSIPPI[Aha]R; triazole 2-10; linker N-C via X1)
Number of slow-exchanging protons (closed) ([1]; n = 3, listed as S6i open): 3.3 ± 0.2
Number of slow-exchanging protons (open) ([1]; n = 3, listed as S6i open): 3.3 ± 0.1
